From publication PMC5418850 come the findings set out here.

Protein sequences, listed by entry. Tags and fused reporters are not part of them. Lines headed by an entry give the natural chain unless they say otherwise; changes in a name come on top.
UniProt Q9EQU5: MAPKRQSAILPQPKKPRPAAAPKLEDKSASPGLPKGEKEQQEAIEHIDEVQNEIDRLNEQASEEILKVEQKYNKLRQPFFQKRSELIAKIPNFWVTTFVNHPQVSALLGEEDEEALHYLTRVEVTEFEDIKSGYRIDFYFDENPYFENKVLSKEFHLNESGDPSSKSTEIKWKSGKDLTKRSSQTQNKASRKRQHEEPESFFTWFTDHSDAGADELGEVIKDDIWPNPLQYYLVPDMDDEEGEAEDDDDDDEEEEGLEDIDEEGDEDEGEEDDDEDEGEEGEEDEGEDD
UniProt O35381: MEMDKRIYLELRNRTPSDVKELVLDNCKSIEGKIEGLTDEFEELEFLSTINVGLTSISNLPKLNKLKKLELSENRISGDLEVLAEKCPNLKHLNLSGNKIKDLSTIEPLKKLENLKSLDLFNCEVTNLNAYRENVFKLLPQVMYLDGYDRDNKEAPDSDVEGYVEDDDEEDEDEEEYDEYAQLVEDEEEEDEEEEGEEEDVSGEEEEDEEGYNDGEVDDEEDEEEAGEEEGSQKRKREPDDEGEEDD

The target in the assay is SET (mouse (endogenous in hippocampal CA3)) (UniProt Q9EQU5). Description: co-IP; protein extracts of hippocampal CA3 of wt-siC, htau-siC and htau-siANP mice (lentiviral ANP32A shRNA or scrambled control) incubated overnight at 4 °C with the precipitating antibodies, protein G-Sepharose beads 2 h at 4 °C, washed with cell lysis buffer, SDS-PAGE and blot.

These are yes or no findings as the source states them, for the method shown. Binding seen in cells or lysates may run through a third protein. Binding calls can cover weak binding; strength is not graded here.

Turning to ANP32A (from UniProt O35381 1-247), the binding entry is recorded as “binds”.
